Measured values: paper PMC5341947
No constants are given. Whether binding was seen depends on the method and setting. In cells and extracts the contact can be indirect. Some binding calls cover weakened binding; strength is not graded here.

The chains behind the UniProt entries cited, without tags or fusion partners. Where a name states a change or a piece, a line headed by the entry shows the natural chain unless it says otherwise. Residues count along the entry.
UniProt Q13490: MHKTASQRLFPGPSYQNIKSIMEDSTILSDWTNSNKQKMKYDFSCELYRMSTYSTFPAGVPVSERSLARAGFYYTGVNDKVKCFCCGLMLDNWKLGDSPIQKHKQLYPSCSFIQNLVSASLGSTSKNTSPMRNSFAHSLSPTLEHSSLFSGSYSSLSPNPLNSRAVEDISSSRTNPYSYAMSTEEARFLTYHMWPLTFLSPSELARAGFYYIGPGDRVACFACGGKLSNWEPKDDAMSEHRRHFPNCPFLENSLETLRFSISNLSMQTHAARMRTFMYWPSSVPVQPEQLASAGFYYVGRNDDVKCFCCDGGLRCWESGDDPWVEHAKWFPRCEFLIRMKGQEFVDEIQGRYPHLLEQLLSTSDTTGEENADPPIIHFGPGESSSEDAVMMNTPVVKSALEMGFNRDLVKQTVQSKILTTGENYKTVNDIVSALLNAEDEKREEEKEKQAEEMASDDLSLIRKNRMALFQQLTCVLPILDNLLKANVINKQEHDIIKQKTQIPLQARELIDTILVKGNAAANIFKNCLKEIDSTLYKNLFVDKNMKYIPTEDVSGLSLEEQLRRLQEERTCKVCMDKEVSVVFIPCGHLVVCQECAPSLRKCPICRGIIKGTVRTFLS
UniProt Q9UGM3, residues 20-2413: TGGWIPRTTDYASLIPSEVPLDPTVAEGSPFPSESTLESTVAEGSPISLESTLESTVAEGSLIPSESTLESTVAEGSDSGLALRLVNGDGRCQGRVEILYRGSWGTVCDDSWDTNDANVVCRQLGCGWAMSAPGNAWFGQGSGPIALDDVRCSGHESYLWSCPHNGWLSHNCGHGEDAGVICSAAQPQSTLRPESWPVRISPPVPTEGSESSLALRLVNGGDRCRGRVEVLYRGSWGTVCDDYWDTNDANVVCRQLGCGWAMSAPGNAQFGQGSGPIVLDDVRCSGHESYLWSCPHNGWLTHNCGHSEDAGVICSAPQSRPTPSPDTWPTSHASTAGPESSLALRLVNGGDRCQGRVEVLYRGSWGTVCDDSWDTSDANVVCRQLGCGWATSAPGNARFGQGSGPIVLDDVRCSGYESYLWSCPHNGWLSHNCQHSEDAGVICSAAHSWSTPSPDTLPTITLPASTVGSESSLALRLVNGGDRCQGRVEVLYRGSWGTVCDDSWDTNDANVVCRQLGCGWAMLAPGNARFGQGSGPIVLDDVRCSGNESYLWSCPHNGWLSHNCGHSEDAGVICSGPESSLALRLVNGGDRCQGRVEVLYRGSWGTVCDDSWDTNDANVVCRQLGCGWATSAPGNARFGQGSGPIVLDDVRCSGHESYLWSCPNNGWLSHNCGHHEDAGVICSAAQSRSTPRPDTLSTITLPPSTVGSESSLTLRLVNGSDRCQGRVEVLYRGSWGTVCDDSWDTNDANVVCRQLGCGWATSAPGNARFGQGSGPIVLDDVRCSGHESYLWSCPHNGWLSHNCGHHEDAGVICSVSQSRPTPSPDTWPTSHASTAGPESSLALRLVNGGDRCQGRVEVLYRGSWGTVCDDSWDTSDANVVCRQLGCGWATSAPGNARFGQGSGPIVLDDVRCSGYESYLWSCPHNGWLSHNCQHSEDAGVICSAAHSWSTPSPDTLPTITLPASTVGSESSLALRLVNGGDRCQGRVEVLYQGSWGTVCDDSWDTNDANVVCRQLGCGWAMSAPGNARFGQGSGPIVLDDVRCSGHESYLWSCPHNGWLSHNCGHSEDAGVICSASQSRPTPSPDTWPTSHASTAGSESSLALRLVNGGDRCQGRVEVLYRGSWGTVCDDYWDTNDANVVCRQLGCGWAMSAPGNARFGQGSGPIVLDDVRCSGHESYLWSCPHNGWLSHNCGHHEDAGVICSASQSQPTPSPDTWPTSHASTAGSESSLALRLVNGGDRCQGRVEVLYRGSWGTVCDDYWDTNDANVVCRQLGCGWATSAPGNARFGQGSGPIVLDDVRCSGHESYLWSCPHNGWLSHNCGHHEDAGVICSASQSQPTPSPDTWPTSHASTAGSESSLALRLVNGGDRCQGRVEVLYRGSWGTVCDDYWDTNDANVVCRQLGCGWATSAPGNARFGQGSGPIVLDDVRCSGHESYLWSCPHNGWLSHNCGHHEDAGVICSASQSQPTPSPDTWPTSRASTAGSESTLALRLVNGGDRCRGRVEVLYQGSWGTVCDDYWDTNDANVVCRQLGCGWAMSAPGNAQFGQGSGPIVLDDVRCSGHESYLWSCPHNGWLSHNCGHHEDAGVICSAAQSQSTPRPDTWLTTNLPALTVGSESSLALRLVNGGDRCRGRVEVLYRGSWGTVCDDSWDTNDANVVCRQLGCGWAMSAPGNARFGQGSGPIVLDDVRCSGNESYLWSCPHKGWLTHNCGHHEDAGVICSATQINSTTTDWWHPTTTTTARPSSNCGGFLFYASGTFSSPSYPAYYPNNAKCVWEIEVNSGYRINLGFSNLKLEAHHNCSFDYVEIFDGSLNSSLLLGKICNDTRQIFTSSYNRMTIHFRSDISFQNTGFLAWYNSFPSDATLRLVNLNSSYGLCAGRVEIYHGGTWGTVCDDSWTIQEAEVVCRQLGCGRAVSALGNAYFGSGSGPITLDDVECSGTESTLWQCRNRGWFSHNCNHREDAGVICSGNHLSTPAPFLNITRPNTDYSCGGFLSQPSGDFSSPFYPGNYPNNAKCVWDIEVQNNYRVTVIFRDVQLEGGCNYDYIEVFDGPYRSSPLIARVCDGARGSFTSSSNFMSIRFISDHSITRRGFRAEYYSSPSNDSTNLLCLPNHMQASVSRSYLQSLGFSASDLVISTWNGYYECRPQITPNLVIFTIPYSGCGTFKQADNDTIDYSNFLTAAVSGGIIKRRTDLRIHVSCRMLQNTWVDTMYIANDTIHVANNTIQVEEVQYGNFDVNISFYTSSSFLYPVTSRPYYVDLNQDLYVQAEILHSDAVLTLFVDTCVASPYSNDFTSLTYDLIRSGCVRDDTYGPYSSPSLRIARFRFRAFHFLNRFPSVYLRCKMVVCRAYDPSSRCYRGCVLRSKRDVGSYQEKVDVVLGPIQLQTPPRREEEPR

Biological target: Baculoviral IAP repeat containing 2 (c-IAP1) (human (endogenous in GBC-SD)) (UniProt Q13490)
Assay: co-IP; GBC-SD cell lysate in RIPA buffer; 1 ug antibody overnight, protein A agarose beads 1 h at 4 C, washed three times with RIPA; Western blot; IgG as negative control

Deleted in malignant brain tumors 1 (DMBT1) (from UniProt Q9UGM3 20-2413)
binding: binds
